Experimental data published in paper PMC12040169 (PLOS Biology, 2025).
Some of the results follow.

Tested on: T1, CTL2-GFP (C. trachomatis L2/434/Bu, GFP-expressing)
T1 construct: L2/434/Bu, GFP-expressing
Design: species or system HeLa; Intracellular C. trachomatis growth in HeLa cells, bulk GFP fluorescence relative to DMSO
Conditions: bulk GFP, single well; 28.5 h, 10 µM; inhibitor

Structure (SMILES)	% of control remaining
O=C(Nc1cc([N+](=O)[O-])ccc1O)c1ccc2c(c1)C(=O)N(Cc1cccnc1)C2=O [CBK266770]	90.8784%
CN(C)CCn1c(=O)oc2ccc(NC(=O)C3CCCO3)cc21 (centres unmarked) [CBK304913]	101.763%
CC(=O)N1CCC(c2c(C(=O)Nc3cccc(CN4CCCC4)c3)sc3ccccc23)C1 (centres unmarked) [CBK285892]	93.5801%
Fc1cccc(-c2nccnc2NCCc2c[nH]c3ccccc23)c1 [CBK036861]	164.703%
O=C(O)CC1S\C(=N/N=C\C=C/c2ccccc2)N(c2ccc(O)cc2)C1=O (centres unmarked) [CBK263688]	125.469%
O=C(c1sc2ccccc2c1C1CCN(Cc2ccccc2F)C1)N1CCOCC1 (centres unmarked) [CBK286260]	151.937%
O=C(C1CCC1)N1CCC(c2nnc3n2CCCCC3)CC1 [CBK284625]	150.717%
N#CCCN(C(=O)NCc1ccc(F)cc1)C1CCCCC1 [CBK156372]	119.85%
O=C(NC1CC(=O)N(CCc2ccc(F)cc2)C1)c1cn2ccsc2n1 (centres unmarked) [CBK307263]	118.719%
OCCN1CCN(CC(O)COCC2COc3ccccc3O2)CC1 (centres unmarked) [CBK027374C]	107.375%
CN1CCN(NC(=O)c2cc(-c3ccc(Cl)cc3)[nH]n2)CC1 [CBK116553]	107.473%
CC(C)(O)C1CCCN(C(=O)c2coc(COc3cccc(F)c3)n2)C1 (centres unmarked) [CBK306977]	174.667%
CC(C)Oc1ccc(CCNC(=N)NC(=N)N)cc1Cl [CBK263966]	62.0552%
O=C(Nc1nc2c(s1)CCCC2)c1ccccc1 [CBK287326]	135.39%
N=C1NC(=O)/C(=C/c2c(OS(=O)(=O)c3ccc(Cl)cc3)ccc3ccccc23)S1 [CBK265311]	100%
NC(=O)CN1CC2(CCNCC2)c2ccccc21 [CBK116314]	88.4333%
Cn1c(SCCC(=O)O)nnc1-c1cccnc1 [CBK269077]	101.721%
Cn1ncc2c1CCCN(C(=O)COc1ccccc1F)C2 [CBK285324]	162.977%
COc1ccc(OC)c(NC(=O)CSc2nnc(-c3ccncc3)s2)c1 [CBK269209]	142.2%
CSc1nc(-c2ccccc2)nc(N)c1C(C)=O [CBK270762]	155.765%
Oc1[nH]nc2c1CCC2 [CBK260873]	102.622%
CC(=O)Nc1ccc(CCC2(NC(=O)C3CC3)CCCCC2)cn1 [CBK282290]	105.489%
CC1CCCN(C(=O)CCn2c(C(F)F)cc3cccnc32)C1 (centres unmarked) [CBK285025]	155.741%
CCC(C)N(C)CCNC(=O)Nc1ccc(F)c(-n2nnnc2C)c1 (centres unmarked) [CBK305176]	111.308%
C(=N/OCc1ccccc1)/c1c[nH]c2ccccc12 [CBK168629]	109.875%
C[C@H](Nc1cncc(-c2ccccc2CO)n1)c1ccccc1 [CBK065520]	114.306%
COc1ccc(C(=O)N2CCC(C)CC2)cc1[N+](=O)[O-] [CBK074341]	103.434%

3 structures already listed, arranged by molecular weight, smallest number first.
Structure (SMILES)	% of control remaining
Fc1cccc(-c2nccnc2NCCc2c[nH]c3ccccc23)c1 [CBK036861]	164.703%
O=C(O)CC1S\C(=N/N=C\C=C/c2ccccc2)N(c2ccc(O)cc2)C1=O (centres unmarked) [CBK263688]	125.469%
O=C(Nc1cc([N+](=O)[O-])ccc1O)c1ccc2c(c1)C(=O)N(Cc1cccnc1)C2=O [CBK266770]	90.8784%

More compounds:

Structure (SMILES)	% of control remaining
NC(=O)Cn1cc(CN2CCC(c3ccccc3)C2)c2ccccc21 (centres unmarked) [CBK282803]	129.71%
FC(F)(F)c1ccnc(Sc2cccs2)n1 [CBK115245]	130.308%
O=C(CO/N=C\c1cccc([N+](=O)[O-])c1)Nc1ccccc1C(=O)O [CBK262051]	116.916%
O=C(C1CCCCC1)N1CCC(n2c(=O)oc3ccccc32)CC1 [CBK284348]	121.424%
OCCNc1nc(-c2ccccc2)cn2ccnc12 [CBK066379]	89.0881%
CCC12CN3CC(CC)(CN(C1)C3c1c(C)[nH]c3ccccc13)C2=O (centres unmarked) [CBK265547]	126.39%
Cc1cc(C)n(CCCn2cncc2-c2cn(C)nc2C)n1 [CBK281772]	117.18%
COc1ccc(Cl)cc1N/C=C(/C#N)c1nc(-c2cc3cc([N+](=O)[O-])ccc3oc2=O)cs1 [CBK263014]	147.1%
CCCc1[nH]n(-c2ccc([N+](=O)[O-])cc2)c(=O)c1/C=N/N1CCN(C)CC1 [CBK262781]	108.584%
CN1CCN(Cc2n[nH]c(=S)n2-c2cccc(C#N)c2)CC1 [CBK015465]	111.868%
O=C(O)c1ccc(S(=O)(=O)NC2CCS(=O)(=O)C2)cc1 (centres unmarked) [CBK262477]	105.426%
COc1ccc(S(=O)(=O)NCc2ccccn2)cc1NC(C)=O [CBK269554]	128.682%
O=C(O)c1ccc(S(=O)(=O)c2ccc3c(c2)C(=O)N(c2nccs2)C3=O)cc1 [CBK261189]	111.512%
CN1C2CCCC1CC(OC(=O)c1cccc3[nH]cnc13)C2 (centres unmarked) [CBK090162]	143.575%
CC(C)(C)OC(=O)N1CCN(CCC(=O)O)CC1 [CBK287143]	113.277%
CC(=O)c1ccc(OCC(=O)Nc2cnc(-c3cccc(C)c3)c(-c3ccc(N)cc3)n2)cc1 [CBK036722]	146.288%
O=C(NCCCc1nc2cc(F)ccc2[nH]1)[C@@H]1C[C@@H]2C=C[C@H]1C2 [CBK281665]	113.879%
O=C(N[C@H]1CO[C@H]2[C@@H]1OC[C@@H]2Nc1nccc(-c2cccs2)n1)c1ccccc1 [CBK289516]	82.1276%
Oc1ccccc1/C=N/Nc1nnc(-c2ccccc2)c(-c2ccccc2)n1 [CBK262003]	100%
CN1CCN(C(c2ccccc2)C(O)C(=O)c2c[nH]c3ccccc23)CC1 (centres unmarked) [CBK267823]	100.48%
COc1ccccc1Oc1ccc(S(=O)(=O)N2CCOCC2)cc1S(=O)(=O)N1CCOCC1 [CBK265176]	113.708%
Cc1nn(C)c(C)c1CN(C(=O)C(C)Oc1cccc(F)c1)C1CC1 (centres unmarked) [CBK281479]	118.171%
O=C1CC(C(=O)Nc2ccccn2)c2ccccc2N1 (centres unmarked) [CBK297771]	120.774%
CC1CCCN(CC(O)c2ccc3c(c2)CC(C)N3C(=O)C2CC2)C1 (centres unmarked) [CBK282125]	163.762%
C#CCNC(=O)c1nn(-c2nc3ccccc3s2)c2ccccc12 [CBK048486]	155.904%
CC(=O)N1CCN(c2cncc(-c3ccc(O)cc3)n2)CC1 [CBK126948T]	99.1573%
CN1CCN(c2nc(-c3cccc4ncccc34)cnc2N)CC1 [CBK063465]	118.718%

Structure (SMILES)	% of control remaining
Cc1ccc(S(=O)(=O)CCc2noc(-c3n[nH]c4ccccc34)n2)cc1 [CBK288598]	118.403%
CN1CCCC(NC(=O)CCCOc2ccccc2F)C1 (centres unmarked) [CBK282072]	103.773%
CN(C)C(=O)CSc1cnc2ccccc2n1 [CBK086626]	123.137%
CN1CCN(NC(=O)CN(C)S(=O)(=O)c2cc(Cl)ccc2Cl)CC1 [CBK267366]	177.361%
OCCN(Cc1cccnc1)Cc1cccn1-c1ccc(F)cc1F [CBK283042]	111.415%
COCCNc1nc(-c2ccccc2OC)ccc1C(=O)NCCNC(C)=O [CBK105974]	106.472%
CCNc1cc(-c2ccc(Cl)cc2)ncn1 [CBK090880]	173.729%
Cc1ccc(-c2ccc(N3CCN(C(=O)c4ccco4)CC3)nc2)cc1C [CBK037775]	81.7044%
O=C(CN1CCCc2ccccc21)c1ccsc1 [CBK138333]	124.03%
CSCCC(C(=O)O)n1c(S)nnc1-c1ccc2ccccc2n1 (centres unmarked) [CBK269230]	160.729%
Cc1ccc(N2NC(=O)/C(=C/c3ccc(-c4ccc5c(c4)C(=O)NC5=O)o3)C2=O)cc1C [CBK262963]	116.782%
Cc1cc(NC2CC3CCCC(C2)N3C)nc(N)n1 (centres unmarked) [CBK170333]	139.955%
O=S(=O)(Nc1ccc(-c2nnn[nH]2)cc1)c1ccc(F)c(C(F)(F)F)c1 [CBK154759]	108.219%
O=C(O)C1CCCCC1C(=O)Nc1ccc(S(=O)(=O)N2CCOCC2)cc1 (centres unmarked) [CBK268010]	129.926%
CC(=O)N1CCC2(C/C=C/C[C@H]3CN(Cc4nccs4)CC[C@H]3NC(=O)CNC2=O)CC1 [CBK292169]	111.689%
COc1ccc(CN2Cc3cccc(C(=O)O)c3C2=O)cc1OC [CBK291237]	168.298%
O=C1NCC2(C/C=C/CCOc3ccccc31)CCN(C(=O)c1ccncc1)CC2 [CBK292018]	93.0613%
O=C(Nc1sc2c(c1C(=O)NCCc1ccccc1)CCC2)c1sc2ccccc2c1Cl [CBK266379]	143.84%
COCCNC(=O)c1nn(-c2cccc(C(C)C)c2)cc1O [CBK304884]	126.303%
CCCCC(NC(=O)c1cc2ccccc2[nH]1)C(=O)O (centres unmarked) [CBK286647]	113.79%
Cn1ccnc1C(NC(=O)c1ccncc1)c1ccc(F)c(F)c1 (centres unmarked) [CBK283808]	92.5135%
CN1CCc2c(c(NCC3CCCO3)nc3[nH]nc(N)c23)C1 (centres unmarked) [CBK287955]	140.344%
Cc1ccc(NC(=O)NCCC2=CCCCC2)cc1Cl [CBK044135]	107.698%
COCCCOc1cc(N2CCCC2)ncn1 [CBK115896]	141.583%
O=C(c1nccs1)C1CCN(C(=O)Cc2ccccc2Cl)CC1 [CBK284162]	108.322%
CCCC(=O)c1ccc(S(=O)(=O)N2CCCN(Cc3ccc(F)c(C(F)(F)F)c3)CC2)cc1 [CBK062918]	101.114%
